Data: patent US20080171720A1, “Nutritional Supplement For Hiv Patients” (N.V. Nutricia, priority 2005, published 2008)
For at least one compound, name, drawing or mass did not settle the structure.

Test system: intestinal tight junction permeability
Test: Inflammatory mediated intestinal tight junction permeability
Conditions: no method or data given

## CC/C=C\C/C=C\C/C=C\C/C=C\C/C=C\CCCC(=O)O [EPA, eicosapentaenoic acid]
  reduction of inflammatory mediated intestinal tight junction permeability: effectively reduce inflammatory mediated intestinal tight junction permeability
